Measured data: PubChem BioAssay AID504744 (Drosophila RNAi Screening Center, 2011)

Aim: 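Find genes whose loss alters insulin-driven dAkt phosphorylation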 (primary screen)
System: Drosophila Kc167 cells
Knock-down reagent: long dsRNA against Drosophila genes, 250 ng dsRNA per well of a 384-well plate
Time to read-out: 3 days of knock-down, then overnight serum-free starvation before stimulation
Treatment: bovine insulin at 387 nM for 10 minutes after 12 h without serum
Measured: 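In-cell antibody fluorescence for phospho-dAkt in each well over DNA-dye signal, with log2 residuals expressed as z-scores adjusted for cell count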
Rule for the call: 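Hit in the insulin screen when the two-replicate mean z-score is more extreme than plus or minus 2.5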
The deposit covers about 23,000 reagents; shown is a random part of those with a known target gene and a result. Over the whole deposit, 98 (0.43%) got an active call. 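Only hit calls are given; the phospho-dAkt signals, z-scores and hit direction were not deposited.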 Reagents against one gene are numbered here. A plus sign joins genes that one reagent is predicted to hit.

| target gene | dsRNA no. | call |
| --- | --- | --- |
| CG34229 | 1 | inactive |
| Rac2 | 1 | inactive |
| CG31637 | 1 | inactive |
| CG31637 | 2 | inactive |
| Sems | 1 | inactive |
| CG5966 | 1 | inactive |
| CG7781 | 1 | inactive |
| CG9682 | 1 | inactive |
| PCNA | 1 | inactive |
| CG32572 | 1 | inactive |
| CG32572 | 2 | inactive |
| CG13004 | 1 | inactive |
| CG7328 | 1 | inactive |
| CG7800 | 1 | inactive |
| CG32170 | 1 | inactive |
| CG33290 | 1 | inactive |
| CG30031 + deltaTry + CG30025 + 1 more | 1 | inactive |
| CG15824 | 1 | inactive |
| CG9391 | 1 | inactive |
| CG13050 | 1 | inactive |
| Gyc32E | 1 | inactive |
| swm | 1 | inactive |
| swm | 2 | inactive |
| e(r) | 1 | inactive |
| CG15347 | 1 | inactive |
| SMC5 | 1 | inactive |
| Pex3 | 1 | inactive |
| Oga | 1 | inactive |
| EndoA | 1 | inactive |
| stau | 1 | inactive |
| Ran-like | 1 | inactive |
| CG15200 | 1 | inactive |
| CG34007 | 1 | inactive |
| CG3213 | 1 | inactive |
| CG10650 | 1 | inactive |
| CG31139 | 1 | inactive |
| CG15909 | 1 | inactive |
| Prp39 | 1 | inactive |
| CG5697 | 1 | inactive |
| CG34148 + P5CDh2 | 1 | inactive |
| Task6 | 1 | inactive |
| IA-2 | 1 | inactive |
| IA-2 | 2 | inactive |
| Spn47C | 1 | inactive |
| Ufsp2 | 1 | inactive |
| CG31100 | 1 | inactive |
| CG31100 | 2 | inactive |
| CG10102 (retired record) | 1 | inactive |
| CG31871 | 1 | inactive |
| CG31871 | 2 | inactive |
| Spn28B | 1 | inactive |
| CG16952 | 1 | inactive |
| CG32181 | 1 | inactive |
| IntS9 | 1 | inactive |
| gammaSnap2 | 1 | inactive |
| CG2614 | 1 | inactive |
| CG14374 | 1 | inactive |
| CG13250 | 1 | inactive |
| CG14642 | 1 | inactive |
| CG15408 | 1 | inactive |
| Cnep1r2 | 1 | inactive |
| Ptp61F | 1 | inactive |
| CG17562 | 1 | inactive |
| CG10444 | 1 | inactive |

Reformatted: 10 of the entries above
target gene | dsRNA no. | call
e(r) | 1 | inactive
CG15347 | 1 | inactive
SMC5 | 1 | inactive
Pex3 | 1 | inactive
Oga | 1 | inactive
EndoA | 1 | inactive
stau | 1 | inactive
Ran-like | 1 | inactive
CG15200 | 1 | inactive
CG34007 | 1 | inactive
